Results on 15 substances are retold here after publication PMC5998130.

The chains behind the UniProt entries cited, without tags or fusion partners.
UniProt Q92793: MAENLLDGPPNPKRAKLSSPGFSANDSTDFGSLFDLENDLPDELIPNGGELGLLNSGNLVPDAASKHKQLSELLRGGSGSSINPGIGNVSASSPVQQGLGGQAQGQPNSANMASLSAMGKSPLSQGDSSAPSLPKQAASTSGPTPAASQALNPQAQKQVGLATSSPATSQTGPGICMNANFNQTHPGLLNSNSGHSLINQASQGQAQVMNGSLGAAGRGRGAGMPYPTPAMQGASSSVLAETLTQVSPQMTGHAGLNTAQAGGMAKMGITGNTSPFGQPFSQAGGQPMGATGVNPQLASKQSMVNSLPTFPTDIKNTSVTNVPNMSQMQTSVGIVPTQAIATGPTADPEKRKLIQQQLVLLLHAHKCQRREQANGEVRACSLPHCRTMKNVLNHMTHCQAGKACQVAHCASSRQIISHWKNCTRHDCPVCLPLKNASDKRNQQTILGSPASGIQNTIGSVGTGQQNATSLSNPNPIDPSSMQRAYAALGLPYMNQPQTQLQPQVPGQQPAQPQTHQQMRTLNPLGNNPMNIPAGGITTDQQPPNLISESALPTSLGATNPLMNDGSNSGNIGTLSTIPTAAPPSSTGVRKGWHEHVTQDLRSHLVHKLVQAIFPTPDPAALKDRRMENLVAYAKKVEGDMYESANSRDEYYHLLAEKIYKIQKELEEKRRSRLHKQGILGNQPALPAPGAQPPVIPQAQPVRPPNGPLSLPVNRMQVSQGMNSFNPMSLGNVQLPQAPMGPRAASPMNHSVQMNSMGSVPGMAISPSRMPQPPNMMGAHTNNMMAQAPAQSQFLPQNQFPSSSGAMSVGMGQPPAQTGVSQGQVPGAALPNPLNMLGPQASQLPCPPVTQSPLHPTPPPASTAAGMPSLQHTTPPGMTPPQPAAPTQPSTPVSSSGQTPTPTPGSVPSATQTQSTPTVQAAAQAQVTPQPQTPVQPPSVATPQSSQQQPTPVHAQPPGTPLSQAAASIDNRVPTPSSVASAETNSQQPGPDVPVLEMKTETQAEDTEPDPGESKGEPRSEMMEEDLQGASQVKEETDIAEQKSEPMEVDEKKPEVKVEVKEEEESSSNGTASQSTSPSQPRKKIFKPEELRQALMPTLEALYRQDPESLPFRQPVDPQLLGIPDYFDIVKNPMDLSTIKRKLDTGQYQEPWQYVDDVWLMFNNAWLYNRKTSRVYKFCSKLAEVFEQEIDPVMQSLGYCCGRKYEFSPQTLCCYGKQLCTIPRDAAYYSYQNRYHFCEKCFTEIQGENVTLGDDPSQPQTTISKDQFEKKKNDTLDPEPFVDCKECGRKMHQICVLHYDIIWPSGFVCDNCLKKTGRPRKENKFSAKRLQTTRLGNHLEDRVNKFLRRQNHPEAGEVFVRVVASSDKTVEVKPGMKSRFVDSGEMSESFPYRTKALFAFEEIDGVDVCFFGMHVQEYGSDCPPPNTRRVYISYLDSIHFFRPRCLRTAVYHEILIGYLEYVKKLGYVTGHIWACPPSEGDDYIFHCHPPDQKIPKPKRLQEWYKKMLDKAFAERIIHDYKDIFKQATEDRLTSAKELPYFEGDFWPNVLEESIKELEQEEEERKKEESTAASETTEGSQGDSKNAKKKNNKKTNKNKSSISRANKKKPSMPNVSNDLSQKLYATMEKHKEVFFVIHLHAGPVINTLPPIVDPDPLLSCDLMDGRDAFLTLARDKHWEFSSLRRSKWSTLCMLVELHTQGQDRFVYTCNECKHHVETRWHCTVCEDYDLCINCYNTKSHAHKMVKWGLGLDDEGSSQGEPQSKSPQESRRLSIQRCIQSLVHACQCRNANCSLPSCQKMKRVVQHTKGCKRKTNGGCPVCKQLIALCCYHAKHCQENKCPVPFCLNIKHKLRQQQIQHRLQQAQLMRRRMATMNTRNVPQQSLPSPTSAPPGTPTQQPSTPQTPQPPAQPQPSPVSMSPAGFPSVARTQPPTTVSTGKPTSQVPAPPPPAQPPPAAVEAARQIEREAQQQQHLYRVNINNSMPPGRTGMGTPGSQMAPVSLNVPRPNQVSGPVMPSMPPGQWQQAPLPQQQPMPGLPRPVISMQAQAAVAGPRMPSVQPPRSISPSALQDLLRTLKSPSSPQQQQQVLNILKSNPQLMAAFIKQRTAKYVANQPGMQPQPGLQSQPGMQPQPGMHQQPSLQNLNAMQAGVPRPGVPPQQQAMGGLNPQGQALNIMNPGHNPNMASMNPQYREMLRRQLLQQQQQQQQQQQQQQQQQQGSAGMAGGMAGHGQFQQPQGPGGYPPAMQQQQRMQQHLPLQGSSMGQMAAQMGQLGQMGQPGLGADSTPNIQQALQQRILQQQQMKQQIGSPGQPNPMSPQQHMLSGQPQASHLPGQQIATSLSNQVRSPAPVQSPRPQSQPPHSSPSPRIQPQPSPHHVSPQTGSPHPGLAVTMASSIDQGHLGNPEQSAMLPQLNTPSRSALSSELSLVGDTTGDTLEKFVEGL
UniProt Q9Y6Q9: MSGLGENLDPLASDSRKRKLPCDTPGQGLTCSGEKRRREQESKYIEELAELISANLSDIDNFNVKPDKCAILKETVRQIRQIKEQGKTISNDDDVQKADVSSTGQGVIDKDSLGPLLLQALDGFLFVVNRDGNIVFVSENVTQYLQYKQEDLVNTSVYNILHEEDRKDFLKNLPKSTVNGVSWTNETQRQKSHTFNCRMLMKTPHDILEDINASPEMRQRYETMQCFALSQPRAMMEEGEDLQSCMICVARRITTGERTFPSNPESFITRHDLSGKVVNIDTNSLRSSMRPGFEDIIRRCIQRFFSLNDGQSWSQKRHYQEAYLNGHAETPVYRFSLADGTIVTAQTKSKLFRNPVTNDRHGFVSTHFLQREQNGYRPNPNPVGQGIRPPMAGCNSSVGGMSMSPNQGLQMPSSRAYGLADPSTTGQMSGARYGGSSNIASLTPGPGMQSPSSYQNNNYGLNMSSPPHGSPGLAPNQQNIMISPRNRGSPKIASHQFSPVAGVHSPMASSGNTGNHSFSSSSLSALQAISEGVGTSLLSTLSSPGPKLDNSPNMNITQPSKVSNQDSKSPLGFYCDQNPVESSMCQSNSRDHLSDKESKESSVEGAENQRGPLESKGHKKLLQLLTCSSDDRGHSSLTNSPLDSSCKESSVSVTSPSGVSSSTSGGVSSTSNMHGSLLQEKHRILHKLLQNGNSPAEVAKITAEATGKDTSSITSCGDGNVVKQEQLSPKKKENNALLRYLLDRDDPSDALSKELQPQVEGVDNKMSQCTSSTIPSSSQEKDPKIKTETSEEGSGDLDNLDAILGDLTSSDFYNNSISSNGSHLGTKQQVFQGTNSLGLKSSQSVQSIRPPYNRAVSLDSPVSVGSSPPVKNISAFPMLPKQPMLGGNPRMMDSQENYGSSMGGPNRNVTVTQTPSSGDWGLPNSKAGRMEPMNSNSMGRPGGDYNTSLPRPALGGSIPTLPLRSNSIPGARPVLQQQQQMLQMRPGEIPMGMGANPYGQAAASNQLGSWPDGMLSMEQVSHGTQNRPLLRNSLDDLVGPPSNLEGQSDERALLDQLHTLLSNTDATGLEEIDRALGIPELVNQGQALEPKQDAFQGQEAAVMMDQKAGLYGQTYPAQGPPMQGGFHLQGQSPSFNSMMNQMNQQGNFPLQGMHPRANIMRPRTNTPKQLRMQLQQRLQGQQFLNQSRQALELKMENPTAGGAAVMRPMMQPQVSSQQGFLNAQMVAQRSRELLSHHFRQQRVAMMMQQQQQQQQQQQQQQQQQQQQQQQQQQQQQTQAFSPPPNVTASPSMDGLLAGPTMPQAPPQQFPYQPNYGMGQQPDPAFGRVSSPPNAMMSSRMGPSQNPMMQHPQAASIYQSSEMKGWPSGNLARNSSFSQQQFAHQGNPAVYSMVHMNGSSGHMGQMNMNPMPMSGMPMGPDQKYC
UniProt Q13185: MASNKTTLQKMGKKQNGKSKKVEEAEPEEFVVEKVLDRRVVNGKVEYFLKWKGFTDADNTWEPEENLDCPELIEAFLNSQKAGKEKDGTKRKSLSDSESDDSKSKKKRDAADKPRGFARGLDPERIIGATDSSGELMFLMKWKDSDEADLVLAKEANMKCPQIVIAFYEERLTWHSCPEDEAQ
UniProt Q09472: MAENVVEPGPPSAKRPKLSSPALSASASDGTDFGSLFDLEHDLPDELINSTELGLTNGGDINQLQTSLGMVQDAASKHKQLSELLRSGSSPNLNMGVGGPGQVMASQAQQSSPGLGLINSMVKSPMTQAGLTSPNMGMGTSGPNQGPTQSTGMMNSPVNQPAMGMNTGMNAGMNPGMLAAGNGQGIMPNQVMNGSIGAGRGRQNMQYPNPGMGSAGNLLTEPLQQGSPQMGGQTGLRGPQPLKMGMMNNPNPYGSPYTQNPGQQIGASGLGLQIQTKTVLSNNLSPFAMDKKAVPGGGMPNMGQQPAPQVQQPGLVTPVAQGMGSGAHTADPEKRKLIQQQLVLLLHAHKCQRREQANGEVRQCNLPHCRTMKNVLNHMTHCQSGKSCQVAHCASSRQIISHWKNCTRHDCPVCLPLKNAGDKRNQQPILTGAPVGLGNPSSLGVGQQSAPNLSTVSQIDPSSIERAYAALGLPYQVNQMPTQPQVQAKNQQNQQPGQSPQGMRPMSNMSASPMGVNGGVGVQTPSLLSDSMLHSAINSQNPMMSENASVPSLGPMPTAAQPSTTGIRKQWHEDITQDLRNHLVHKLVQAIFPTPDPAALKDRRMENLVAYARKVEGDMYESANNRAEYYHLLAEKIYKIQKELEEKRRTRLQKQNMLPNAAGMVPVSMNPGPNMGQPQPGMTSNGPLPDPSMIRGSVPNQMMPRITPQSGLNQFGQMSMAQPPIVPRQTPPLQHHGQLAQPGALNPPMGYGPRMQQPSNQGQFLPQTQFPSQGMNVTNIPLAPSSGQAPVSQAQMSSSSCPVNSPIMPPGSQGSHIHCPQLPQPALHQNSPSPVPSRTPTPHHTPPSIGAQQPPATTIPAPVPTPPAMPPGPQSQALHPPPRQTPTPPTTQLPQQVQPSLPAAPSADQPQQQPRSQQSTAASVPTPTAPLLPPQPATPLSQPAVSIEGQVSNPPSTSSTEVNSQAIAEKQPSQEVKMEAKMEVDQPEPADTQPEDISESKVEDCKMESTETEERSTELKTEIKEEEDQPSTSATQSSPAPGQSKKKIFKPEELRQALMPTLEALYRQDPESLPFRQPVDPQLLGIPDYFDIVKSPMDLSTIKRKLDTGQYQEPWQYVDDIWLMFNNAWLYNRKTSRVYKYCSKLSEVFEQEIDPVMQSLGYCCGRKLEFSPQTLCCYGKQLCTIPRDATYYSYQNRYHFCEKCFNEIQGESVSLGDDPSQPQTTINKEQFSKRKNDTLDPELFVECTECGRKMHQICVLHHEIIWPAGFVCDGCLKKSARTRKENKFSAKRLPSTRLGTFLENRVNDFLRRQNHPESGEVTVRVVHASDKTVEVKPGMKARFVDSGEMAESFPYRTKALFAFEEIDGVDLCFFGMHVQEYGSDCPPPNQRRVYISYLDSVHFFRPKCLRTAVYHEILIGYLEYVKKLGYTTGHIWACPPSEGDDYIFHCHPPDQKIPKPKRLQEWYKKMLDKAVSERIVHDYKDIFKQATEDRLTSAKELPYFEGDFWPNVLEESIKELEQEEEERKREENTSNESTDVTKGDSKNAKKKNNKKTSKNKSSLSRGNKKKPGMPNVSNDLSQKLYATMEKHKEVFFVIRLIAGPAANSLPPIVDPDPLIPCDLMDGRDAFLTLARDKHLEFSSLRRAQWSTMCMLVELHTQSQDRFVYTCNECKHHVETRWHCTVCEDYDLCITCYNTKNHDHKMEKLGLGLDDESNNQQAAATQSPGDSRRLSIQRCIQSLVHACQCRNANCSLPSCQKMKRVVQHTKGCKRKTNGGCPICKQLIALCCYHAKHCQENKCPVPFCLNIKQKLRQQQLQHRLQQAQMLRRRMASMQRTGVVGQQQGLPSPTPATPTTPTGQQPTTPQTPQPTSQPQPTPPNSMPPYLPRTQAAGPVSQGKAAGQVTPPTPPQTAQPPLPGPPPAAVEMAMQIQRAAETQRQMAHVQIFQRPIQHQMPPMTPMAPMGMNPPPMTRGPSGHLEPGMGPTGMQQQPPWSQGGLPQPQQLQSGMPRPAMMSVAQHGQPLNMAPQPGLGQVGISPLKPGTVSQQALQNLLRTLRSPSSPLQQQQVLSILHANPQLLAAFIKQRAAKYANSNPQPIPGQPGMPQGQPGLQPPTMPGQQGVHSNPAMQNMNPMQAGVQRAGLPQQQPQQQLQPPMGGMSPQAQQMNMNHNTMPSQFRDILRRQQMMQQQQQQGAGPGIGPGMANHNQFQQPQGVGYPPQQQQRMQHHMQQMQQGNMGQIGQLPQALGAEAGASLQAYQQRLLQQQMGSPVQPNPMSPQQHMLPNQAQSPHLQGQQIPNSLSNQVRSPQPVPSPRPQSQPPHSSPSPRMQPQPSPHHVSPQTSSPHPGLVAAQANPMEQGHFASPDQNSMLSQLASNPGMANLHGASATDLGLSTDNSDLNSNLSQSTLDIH

For assay [1], the target named is Estrogen Receptor alpha (ERα) (human (endogenous in MCF7, human PDX tumours and human breast tumours)) (UniProt P03372). Kind of assay: affinity purification with mass spectrometry; qPLEX-RIME: endogenous ERα precipitated (sc-543, Protein A Dynabeads) from asynchronous MCF7 cells, single crosslinking with 1% FA, sonicated nuclei; TMT-10plex, MultiNotch MS3; five replicates against matched IgG controls.

The target is the same in assay [2]. Kind of assay: affinity purification with mass spectrometry; qPLEX-RIME: endogenous ERα precipitated from cryosections of five human breast cancer tumours (ERα positive, PR positive, Her2 negative), double crosslinking, against matched IgG pull-downs.
Assay [3] has the same target. Kind of assay: affinity purification with mass spectrometry; qPLEX-RIME: endogenous ERα precipitated from cryosections (30 µm) of three ER positive human PDX tumours (HCI-003, HCI-005, HCI-006), double crosslinking, against matched IgG pull-downs.
The target is the same in assay [4]. Kind of assay: affinity purification with mass spectrometry; qPLEX-RIME: endogenous ERα precipitated from MCF7 cells treated with vehicle (ethanol, 24 h) or 100 nM OHT for 2 h, 6 h and 24 h, double crosslinking, 3 x 10plex, against IgG controls; values corrected for the amount of ERα.
Assay [5] addresses CBP (CREB-binding protein) (human (endogenous in MCF7, human PDX tumours and human breast tumours)) (UniProt Q92793). Kind of assay: affinity purification with mass spectrometry; qPLEX-RIME: endogenous CBP precipitated (Diagenode C15410224) from MCF7 cells, double crosslinking (DSG, FA), against IgG controls.
The target in assay [6] is NCOA3 (SRC-3) (human (endogenous in MCF7)) (UniProt Q9Y6Q9). Kind of assay: affinity purification with mass spectrometry; qPLEX-RIME: endogenous NCOA3 precipitated (Bethyl A300-347A) from MCF7 cells, double crosslinking (DSG, FA), against IgG controls.

No constants are given. Whether binding was seen depends on the method and setting. Binding seen in cells or lysates may run through a third protein. A yes stands for co-enrichment or nearness to the bait. Other partners may have been found.

Turning to CBX3 (HP1γ) (from UniProt Q13185 1-183), in assay [1], the binding result is listed as “binds”.

With AP-2γ (from UniProt Q92754 1-450), the binding entry in assay [1] is “binds”.

Consider GREB1 (from UniProt Q4ZG55 1-1949), for which the binding entry in assay [2], in assay [3], in assay [1] and in assay [4] was “binds” throughout.

For HDAC2 (from UniProt Q92769 1-488), the binding result in assay [4] is on record as “binds”.

For “Estrogen Receptor alpha (ERα) (from UniProt P03372 1-595)”, the binding entry in assay [5] is on record as “binds”.

Take “SMARCC2 (BAF170) (from UniProt Q8TAQ2 1-1214)”: the binding result in assay [5], in assay [6] and in assay [4] was “binds” in each case.

For the substance “SMARCA4 (BRG1) (from UniProt P51532 1-1647)”, the binding result in assay [3], in assay [6] and in assay [4] was “binds” each time.

Consider RARα (from UniProt P10276 1-462), for which, in assay [1], the binding result was “binds”.

Consider “CBP (CREB-binding protein) (from UniProt Q92793 1-2442)”, for which the binding entry in assay [2], in assay [3], in assay [1] and in assay [4] was “binds” each time.

As to NIPBL (from UniProt Q6KC79 1-2804), in assay [1], the binding result is listed as “binds”.

As for “SMARCE1 (BAF57) (from UniProt Q969G3 1-411)”, the binding result in assay [3], in assay [5], in assay [6] and in assay [4] was “binds” throughout.

With “SMARCB1 (BAF47) (from UniProt Q12824 1-385)”, the binding result in assay [5] and in assay [6] was “binds” each time.

As to GATA-3 (from UniProt P23771 1-443), the binding result in assay [2] and in assay [1] was “binds” in each case.

With EP300 (from UniProt Q09472 1-2414), the binding entry in assay [2], in assay [1] and in assay [6] was “binds” in each case.

For the substance GREB1L (from UniProt Q9C091 1-1923), in assay [4], the binding entry is on record as “binds”.
